The target in one assay is GST-BRN2 wild type (UniProt P31360). Nature of the assay: pull-down; GST pull-down: 500 ng of GST-BRN2 (wild type or ΔN) coupled to glutathione beads, His-Ku70/Ku80 or 750 ng of PARP1 added for 20 min at room temperature in GSTB buffer (20 mM KPO4 pH 7.4, 0.5 mM EDTA, 10% glycerol, 0.5% NP40, 1 mM DTT, 150 mM KCl, 1 mg/mL BSA); four washes; Western blot for HIS-tagged Ku70 or PARP1; both purified. Background: A western blot detects proteins with antibodies after separation by electrophoresis.

The chains behind the UniProt entries cited, without tags or fusion partners.
UniProt P09874: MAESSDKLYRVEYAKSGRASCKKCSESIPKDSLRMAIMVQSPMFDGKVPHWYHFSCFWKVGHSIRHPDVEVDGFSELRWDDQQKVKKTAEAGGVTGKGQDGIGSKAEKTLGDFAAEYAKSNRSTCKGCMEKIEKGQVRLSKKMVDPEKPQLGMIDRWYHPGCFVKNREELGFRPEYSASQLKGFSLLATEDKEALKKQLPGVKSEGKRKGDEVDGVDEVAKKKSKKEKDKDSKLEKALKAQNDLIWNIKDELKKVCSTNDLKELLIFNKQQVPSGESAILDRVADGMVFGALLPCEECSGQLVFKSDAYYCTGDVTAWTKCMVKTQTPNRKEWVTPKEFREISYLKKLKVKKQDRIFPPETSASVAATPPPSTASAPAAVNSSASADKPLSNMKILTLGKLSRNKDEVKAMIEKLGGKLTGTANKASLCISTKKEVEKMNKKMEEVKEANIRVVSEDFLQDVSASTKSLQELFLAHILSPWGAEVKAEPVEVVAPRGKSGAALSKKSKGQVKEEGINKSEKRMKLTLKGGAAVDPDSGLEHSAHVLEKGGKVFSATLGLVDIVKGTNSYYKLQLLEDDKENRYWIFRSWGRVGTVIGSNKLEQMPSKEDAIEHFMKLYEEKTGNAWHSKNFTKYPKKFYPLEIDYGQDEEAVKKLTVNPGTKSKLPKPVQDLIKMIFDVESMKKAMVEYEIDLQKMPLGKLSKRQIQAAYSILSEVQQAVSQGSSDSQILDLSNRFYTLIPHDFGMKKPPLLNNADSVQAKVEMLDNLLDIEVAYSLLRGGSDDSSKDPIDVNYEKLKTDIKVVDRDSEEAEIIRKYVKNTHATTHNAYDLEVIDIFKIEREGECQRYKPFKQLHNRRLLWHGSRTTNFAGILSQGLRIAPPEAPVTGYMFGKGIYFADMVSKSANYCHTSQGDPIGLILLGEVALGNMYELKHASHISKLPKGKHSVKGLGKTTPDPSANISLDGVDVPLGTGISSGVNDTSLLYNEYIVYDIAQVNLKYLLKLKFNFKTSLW

For assay [1], the target named is Flag epitope-tagged BRN2 wild type (UniProt P31360). The assay is described as follows: co-IP; anti-Flag M2 magnetic beads, 2 h at 4°C, lysis buffer (50 mM Hepes-NaOH pH 8.0, 100 mM KCl, 2 mM EDTA, 0.1% NP40, 10% glycerol), benzonase-treated lysate, five washes, Western blot.

Drawing on PMC6411009, this text covers binding for three substances.

These are yes or no findings as the source states them, for the method shown. For part of these data: Binding seen in cells or lysates may run through a third protein. Some entries that bind do so weakly or less than the wild type.

For the substance “PARP1 (purified recombinant) (from UniProt P09874 1-1014) (enzyme)”, in the assay with GST-BRN2 wild type, the binding result was “binds”.

As to “Ku80 (XRCC5), endogenous (from UniProt P13010 1-732)”, in assay [1], the binding result was “binds”.

As for “His-Ku70/Ku80 complex (from UniProt P12956 1-609; P13010 1-732)”, the binding result with GST-BRN2 wild type was “binds”.
